According to patent publication US20200123267A1 (Genentech, published 2020):
Substitutions are numbered along the chain they refer to. No constants are given. Whether binding was seen depends on the method and setting. Some binding calls cover weakened binding; strength is not graded here.

B1: 7G7 (mouse hybridoma clone) (antibody, V domains shown)
VH: QVQLQQPGSELVRPGASVKLSCKASGYTFTSYWMHWVKQRHGQGLEWIGNIYPGSGSTKYDERFKSKGTLTVDTSSSTAYMHLSSLTSEDSAVYYCTRGGYDSRAWFAYWGQGTLVTVSA
VL: DIVLTQSPASLAVSLGQRATISCRARQSVSTSSYSFMHWYRQKAGQPPKLLIKYASIQESGVPARFSGSGSGTDFTLNILPVEEEDTATYYCQHTWEIPFTFGSGTKLEIK
B2: 4C2 (mouse hybridoma clone) (antibody, V domains shown)
VH: B1 VH with R63K, Y109H
VL: B1 VL with R41Q, A44P, K107N
B3: 16G5 (mouse hybridoma clone) (antibody, V domains shown)
VH: QVQLQQPGAELVRPGAAVKLSCKASGYTFTSYWMHWVKQRPGQGLEWIGEINPTNGRTNYNENFKSKATLTVDKSSSTAYMQLSSLTSEDSAVYYCARGTRAYHFWGQGTSVTVSS
VL: DIQLTQTPASLSVSVGETVTITCRASENIYSNLAWYQQKQGKSPQLLVYAATDLADGVPSRFRGSGSGTQYSLKINSLQSEDFGSYYCQHFWGTPLTFGAGTKLELI
B4: 10D11 (mouse hybridoma clone) (antibody, V domains shown)
VH: QVQLQQSGPELVRPGVAVKISCKGSGYKFIDYGMHWVKQSHTKSLQWIGVISPYSGKTNYSQKFKGKATMTVDKSSSTAYMELARLTSEDSAIYYCARGLSGNFVMDFWGQGTSVTVSS
VL: DIVLTQSPASLAVSLGQRATISCRASESVDSYGPSFMHWYQQKPGQPPKLLIYRASNLESGIPARFSGSGSRTDFTLTINPVEADDVATYYCQHSNEDPPTFGGGTRLEIK
B5: 15D2 (mouse hybridoma clone) (antibody, V domains shown)
VH: QVQLQQSGPELVRPGVSVKISCKGSGYTVTDYAMHWVKQSHAKSLEWIGVISFYSGKTNYNQKFMGKATMTVDKSSSTAYMELARLTSEDSAIYYCARGLSGNYVMDYWGQGTSVTVSS
VL: B4 VL with P34N, H94Q, D98G, R107K
B6: 7B10 (mouse hybridoma clone) (antibody, V domains shown)
VH: B5 VH with V29F, V50G, F53T, S55F, K57R, M65K, K67R, I93L
VL: B4 VL with S31D, P34N, H94Q, D98A, R107K, K111R
B7: 7A4 (mouse hybridoma clone) (antibody, V domains shown)
VH: B5 VH with V29F, V50G, F53T, S55F, K57R, M65K, K67R, I93L
VL: B4 VL with S31D, P34N, H94Q, D98A, R107K, K111R
B8: 8A2 (mouse hybridoma clone) (antibody, V domains shown)
VH: B5 VH with V29F, A33G, F53P, K57R, K63N, M65K, M81L, M106V
VL: B4 VL with P34N, H94Q, D98G, R107K
B9: 7A4 HC/8A2 LC (antibody, V domains shown)
VH: B5 VH with V29F, V50G, F53T, S55F, K57R, M65K, K67R, I93L
VL: B4 VL with P34N, H94Q, D98G, R107K
B10: 1B12 (mouse hybridoma clone) (antibody, V domains shown)
VH: EVKLVESGGGLVQPGGFLKLSCATSGFTFSDYYMYWVRQTPEKRLEWVASISNGGDNTYYPDTVKGRFTISRDNAKNTLYLQMSRLKSEDTAMYYCARQGALYDGYYRGAMDYWGQGTSVTVSS
VL: QIVLTQSPAIMSASLGGRVTMTCTTSSSVPSSYFHWYQQKPGSSPKLWIYSTSNLASGVPARFSGSGSGTSYSLTISSMEAEDAATYYCHQYHRSPFTFGSGTKLEIK
B11: 13D4 (mouse hybridoma clone) (antibody, V domains shown)
VH: QVQLQQSGAELMKPGASVKISCKAAGYTFSNYWIEWVKQRPGHGLEWIGEILPGSGSTKYNEKFKGKATFTADTSSNTAYMQLSSLTSEDSAVYYCARRGGYGYDGEFAYWGQGTLVTVSA
VL: DIQMTQTTSSLSASLGDRVTINCRAGQDITNYLNWFQQKPDGTVKLLIYYTSRLHSGVPSRFSGSGSGTDYSLTITNLEQEDIATYFCQQANTLPYTFGGGTKLEIK
B12: 16F6 (mouse hybridoma clone) (antibody, V domains shown)
VH: DVQLQESGPGLVKPSQSLSLTCTVTGNSITSEYAWNWIRQFPGNKLEWMGYISYSGTTSYNPSLKSRISITRDTSKNQLFLQLNSVTTEDTATYFCARYGYGNPATRYFDVWGAGTTVTVSS
VL: DVQITQSPSYLTASPGETITINCRASKSISKYLAWYQEKPGKTNKLLIYSGSTLQSGIPSRFSGSGSGTDFTLTISNLEPEDFAMYYCQQHNEYPWTFGGGTKLEIK

molecular target: Cyno TfR extracellular domain (construct analogous to the human His-tagged ecd) (cynomolgus monkey); assay: ELISA on cyno TfR

| binding | Binder |
| --- | --- |
| binds | B1 |
| binds | B2 |
| binds | B3 |
| binds | B4 |
| binds | B5 |
| binds | B6 |
| binds | B7 |
| binds | B8 |
| binds | B9 |
| binds | B10 |
| binds | B11 |
| binds | B12 |

molecular target: Full length cyno TfR on 293 cells (cynomolgus monkey); assay: FACS, cyTfR-transfected 293 cells, hybridoma supernatant, 1 uM holo-Tf present

| binding | Binder |
| --- | --- |
| binds | B1 |
| binds | B2 |
| binds | B3 |
| binds | B4 |
| binds | B5 |
| binds | B6 |
| binds | B7 |
| binds | B8 |
| binds | B10 |
| binds | B11 |
| binds | B12 |

molecular target: Human TfR extracellular domain containing an N-terminal His tag (human) (UniProt P02786); assay: ELISA on huTfR

| binding | Binder |
| --- | --- |
| binds | B4 |
| binds | B6 |
| binds | B7 |

molecular target: Full length human TfR on cells (human) (UniProt P02786); assay: FACS, huTfR-transfected 293 cells, hybridoma supernatant, 1 uM holo-Tf present

| binding | Binder |
| --- | --- |
| binds | B4 |
| binds | B6 |
| binds | B7 |

molecular target: Full length human TfR on cells (human) (UniProt P02786); assay: FACS, transfected 293 cells, 1 uM human holo-Tf present

| binding | Binder |
| --- | --- |
| binds | B4 |
| binds | B6 |
| binds | B7 |

molecular target: Full length cyno TfR on 293 cells (cynomolgus monkey); assay: as above

| binding | Binder |
| --- | --- |
| binds | B1 |
| binds | B2 |
| binds | B3 |
| binds | B4 |
| binds | B5 |
| binds | B6 |
| binds | B7 |
| binds | B8 |
| binds | B10 |
| binds | B11 |
| binds | B12 |
